The source of these data is the supplement of paper PMC12819154, “High-throughput peptide-centric local stability assay extends protein–ligand identification to membrane proteins, tissues and bacteria” (Nature Structural & Molecular Biology, 2025).

Chains of the proteins cited; added tags and fusions are not shown. Lines headed by an entry give the natural chain unless they say otherwise; changes in a name come on top.
UniProt Q9HBZ2, whole entry: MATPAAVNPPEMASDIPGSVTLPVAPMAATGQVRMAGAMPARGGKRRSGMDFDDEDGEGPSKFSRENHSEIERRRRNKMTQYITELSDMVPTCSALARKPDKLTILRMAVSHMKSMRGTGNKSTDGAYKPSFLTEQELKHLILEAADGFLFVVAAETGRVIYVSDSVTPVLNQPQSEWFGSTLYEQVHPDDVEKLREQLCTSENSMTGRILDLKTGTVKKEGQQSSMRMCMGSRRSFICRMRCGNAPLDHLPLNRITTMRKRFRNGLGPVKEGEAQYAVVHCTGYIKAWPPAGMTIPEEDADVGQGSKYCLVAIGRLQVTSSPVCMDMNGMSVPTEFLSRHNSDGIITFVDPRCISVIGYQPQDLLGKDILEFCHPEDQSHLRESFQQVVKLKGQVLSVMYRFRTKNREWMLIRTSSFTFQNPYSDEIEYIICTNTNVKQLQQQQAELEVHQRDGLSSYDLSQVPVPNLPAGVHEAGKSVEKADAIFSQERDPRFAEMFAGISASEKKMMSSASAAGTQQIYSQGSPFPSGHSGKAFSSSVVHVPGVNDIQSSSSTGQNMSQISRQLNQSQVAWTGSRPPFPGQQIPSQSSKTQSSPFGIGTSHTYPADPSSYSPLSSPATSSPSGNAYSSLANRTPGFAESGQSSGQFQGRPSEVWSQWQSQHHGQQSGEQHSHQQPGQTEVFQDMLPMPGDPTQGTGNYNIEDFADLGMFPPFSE
UniProt Q9H9Y2: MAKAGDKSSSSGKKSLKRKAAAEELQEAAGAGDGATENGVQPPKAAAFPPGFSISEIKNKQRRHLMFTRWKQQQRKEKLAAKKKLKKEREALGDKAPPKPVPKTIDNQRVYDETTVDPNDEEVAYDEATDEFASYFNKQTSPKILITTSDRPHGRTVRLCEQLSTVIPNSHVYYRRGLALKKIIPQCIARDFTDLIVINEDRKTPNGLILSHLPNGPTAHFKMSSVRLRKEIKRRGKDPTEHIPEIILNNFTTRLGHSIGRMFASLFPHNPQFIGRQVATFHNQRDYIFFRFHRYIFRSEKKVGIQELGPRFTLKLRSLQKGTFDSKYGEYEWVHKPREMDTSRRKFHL
UniProt Q9H7B4: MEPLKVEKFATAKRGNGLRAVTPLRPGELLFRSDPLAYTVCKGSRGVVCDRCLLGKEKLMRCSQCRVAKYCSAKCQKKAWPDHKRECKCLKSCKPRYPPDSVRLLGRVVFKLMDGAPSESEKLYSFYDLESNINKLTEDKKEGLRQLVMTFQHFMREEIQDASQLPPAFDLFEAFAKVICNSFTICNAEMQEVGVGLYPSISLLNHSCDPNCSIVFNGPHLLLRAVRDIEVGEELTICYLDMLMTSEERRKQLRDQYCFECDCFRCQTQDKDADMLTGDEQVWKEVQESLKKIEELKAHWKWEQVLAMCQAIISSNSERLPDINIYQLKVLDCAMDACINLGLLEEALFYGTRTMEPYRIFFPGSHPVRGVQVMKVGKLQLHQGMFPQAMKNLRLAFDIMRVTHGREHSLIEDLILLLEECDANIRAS
UniProt Q9HC77: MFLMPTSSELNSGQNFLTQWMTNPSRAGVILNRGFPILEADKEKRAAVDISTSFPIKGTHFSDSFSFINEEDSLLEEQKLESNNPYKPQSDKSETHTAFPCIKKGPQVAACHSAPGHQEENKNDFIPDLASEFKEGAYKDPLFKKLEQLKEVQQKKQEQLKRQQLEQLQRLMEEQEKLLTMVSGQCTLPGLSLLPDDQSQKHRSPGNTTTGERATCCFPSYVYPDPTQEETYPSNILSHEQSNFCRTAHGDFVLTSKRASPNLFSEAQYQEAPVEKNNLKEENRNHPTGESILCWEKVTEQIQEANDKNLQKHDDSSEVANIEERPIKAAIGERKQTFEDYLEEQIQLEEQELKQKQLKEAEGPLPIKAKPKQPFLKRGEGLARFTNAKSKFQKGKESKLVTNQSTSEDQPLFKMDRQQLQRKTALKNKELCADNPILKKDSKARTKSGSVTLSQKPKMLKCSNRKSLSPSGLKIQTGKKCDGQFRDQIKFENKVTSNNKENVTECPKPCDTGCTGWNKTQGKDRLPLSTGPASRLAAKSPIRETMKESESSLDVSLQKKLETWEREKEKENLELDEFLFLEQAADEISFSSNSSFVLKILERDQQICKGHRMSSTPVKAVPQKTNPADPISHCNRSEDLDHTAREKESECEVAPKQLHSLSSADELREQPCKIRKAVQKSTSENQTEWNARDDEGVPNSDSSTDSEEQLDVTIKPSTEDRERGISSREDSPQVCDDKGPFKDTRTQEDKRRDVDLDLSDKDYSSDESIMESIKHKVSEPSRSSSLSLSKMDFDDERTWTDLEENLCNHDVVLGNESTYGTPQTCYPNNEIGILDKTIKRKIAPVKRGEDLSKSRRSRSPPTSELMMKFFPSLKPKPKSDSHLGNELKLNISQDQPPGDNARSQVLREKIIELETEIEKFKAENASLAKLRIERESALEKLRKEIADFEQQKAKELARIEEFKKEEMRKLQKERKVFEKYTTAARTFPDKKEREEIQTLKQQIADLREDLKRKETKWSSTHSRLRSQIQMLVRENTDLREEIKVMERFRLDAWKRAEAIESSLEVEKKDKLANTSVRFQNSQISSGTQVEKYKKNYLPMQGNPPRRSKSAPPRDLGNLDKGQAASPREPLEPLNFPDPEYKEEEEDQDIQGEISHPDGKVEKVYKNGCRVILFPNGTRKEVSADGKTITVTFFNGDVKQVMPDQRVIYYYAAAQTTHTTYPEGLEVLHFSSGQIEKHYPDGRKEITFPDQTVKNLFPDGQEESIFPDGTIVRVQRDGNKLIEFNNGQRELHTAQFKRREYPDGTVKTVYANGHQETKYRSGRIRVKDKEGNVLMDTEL
UniProt Q9H425: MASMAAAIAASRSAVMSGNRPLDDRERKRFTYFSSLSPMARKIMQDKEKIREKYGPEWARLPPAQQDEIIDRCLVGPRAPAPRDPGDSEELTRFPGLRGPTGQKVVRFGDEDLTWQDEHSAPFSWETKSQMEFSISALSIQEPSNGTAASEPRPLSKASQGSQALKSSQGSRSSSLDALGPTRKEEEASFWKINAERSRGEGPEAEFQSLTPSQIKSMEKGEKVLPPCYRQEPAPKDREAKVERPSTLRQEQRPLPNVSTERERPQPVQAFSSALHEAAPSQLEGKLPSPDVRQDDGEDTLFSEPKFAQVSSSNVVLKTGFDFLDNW
UniProt Q9H8H0: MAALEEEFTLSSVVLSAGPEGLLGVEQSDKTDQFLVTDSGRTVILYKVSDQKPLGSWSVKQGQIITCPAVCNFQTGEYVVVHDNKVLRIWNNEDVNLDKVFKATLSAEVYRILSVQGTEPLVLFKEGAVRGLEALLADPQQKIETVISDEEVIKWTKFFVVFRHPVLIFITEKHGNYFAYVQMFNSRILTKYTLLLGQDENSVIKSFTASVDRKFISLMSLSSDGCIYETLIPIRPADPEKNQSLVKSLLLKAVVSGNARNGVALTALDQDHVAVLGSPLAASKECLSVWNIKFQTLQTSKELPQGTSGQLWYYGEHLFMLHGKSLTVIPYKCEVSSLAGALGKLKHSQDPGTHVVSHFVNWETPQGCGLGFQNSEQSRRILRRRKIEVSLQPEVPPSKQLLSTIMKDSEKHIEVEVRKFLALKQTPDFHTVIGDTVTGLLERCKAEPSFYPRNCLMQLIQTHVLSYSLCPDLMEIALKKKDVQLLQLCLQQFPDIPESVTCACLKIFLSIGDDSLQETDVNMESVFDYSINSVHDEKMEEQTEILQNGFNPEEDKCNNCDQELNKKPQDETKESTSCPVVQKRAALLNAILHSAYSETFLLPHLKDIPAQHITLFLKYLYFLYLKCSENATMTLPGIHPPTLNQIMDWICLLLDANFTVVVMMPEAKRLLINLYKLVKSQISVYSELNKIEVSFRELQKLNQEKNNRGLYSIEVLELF
UniProt Q9HBD1: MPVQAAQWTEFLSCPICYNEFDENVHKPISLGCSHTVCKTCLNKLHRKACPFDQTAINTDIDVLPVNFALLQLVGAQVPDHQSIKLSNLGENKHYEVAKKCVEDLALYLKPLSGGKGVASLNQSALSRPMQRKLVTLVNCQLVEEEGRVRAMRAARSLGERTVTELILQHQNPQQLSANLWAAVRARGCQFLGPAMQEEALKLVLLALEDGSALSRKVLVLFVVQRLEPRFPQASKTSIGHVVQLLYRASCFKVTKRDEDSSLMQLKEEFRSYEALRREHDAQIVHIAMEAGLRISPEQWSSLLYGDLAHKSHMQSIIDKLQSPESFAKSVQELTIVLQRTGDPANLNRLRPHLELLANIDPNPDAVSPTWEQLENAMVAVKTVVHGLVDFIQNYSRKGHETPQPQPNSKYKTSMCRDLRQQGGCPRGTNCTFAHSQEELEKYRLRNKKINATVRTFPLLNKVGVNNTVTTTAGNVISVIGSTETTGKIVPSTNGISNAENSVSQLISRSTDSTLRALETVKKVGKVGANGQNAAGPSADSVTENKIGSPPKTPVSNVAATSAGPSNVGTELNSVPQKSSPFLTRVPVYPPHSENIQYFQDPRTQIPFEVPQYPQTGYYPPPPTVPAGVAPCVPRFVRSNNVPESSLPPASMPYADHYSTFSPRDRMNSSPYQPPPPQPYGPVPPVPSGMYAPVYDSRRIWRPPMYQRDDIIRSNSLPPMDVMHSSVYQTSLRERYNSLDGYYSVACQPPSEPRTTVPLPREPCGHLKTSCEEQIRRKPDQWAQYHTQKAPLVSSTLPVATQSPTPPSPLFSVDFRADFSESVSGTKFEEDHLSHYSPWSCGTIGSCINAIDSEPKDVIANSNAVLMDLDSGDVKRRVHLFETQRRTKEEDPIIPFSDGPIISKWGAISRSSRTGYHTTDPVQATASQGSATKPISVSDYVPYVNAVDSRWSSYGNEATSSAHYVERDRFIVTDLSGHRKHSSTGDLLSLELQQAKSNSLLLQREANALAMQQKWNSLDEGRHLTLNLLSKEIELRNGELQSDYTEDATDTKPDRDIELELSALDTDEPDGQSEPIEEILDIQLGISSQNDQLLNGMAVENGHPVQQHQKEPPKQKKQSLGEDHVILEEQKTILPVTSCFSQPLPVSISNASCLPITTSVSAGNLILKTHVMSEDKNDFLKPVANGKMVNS
UniProt Q9H469: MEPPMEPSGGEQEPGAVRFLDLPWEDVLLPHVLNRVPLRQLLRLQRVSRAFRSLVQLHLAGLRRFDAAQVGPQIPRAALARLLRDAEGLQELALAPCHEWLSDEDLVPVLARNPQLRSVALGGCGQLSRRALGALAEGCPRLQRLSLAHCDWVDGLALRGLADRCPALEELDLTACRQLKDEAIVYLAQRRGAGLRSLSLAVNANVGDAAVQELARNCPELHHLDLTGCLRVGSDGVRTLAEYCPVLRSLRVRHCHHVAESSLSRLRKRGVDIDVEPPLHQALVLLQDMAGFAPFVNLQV
UniProt Q9H4A6: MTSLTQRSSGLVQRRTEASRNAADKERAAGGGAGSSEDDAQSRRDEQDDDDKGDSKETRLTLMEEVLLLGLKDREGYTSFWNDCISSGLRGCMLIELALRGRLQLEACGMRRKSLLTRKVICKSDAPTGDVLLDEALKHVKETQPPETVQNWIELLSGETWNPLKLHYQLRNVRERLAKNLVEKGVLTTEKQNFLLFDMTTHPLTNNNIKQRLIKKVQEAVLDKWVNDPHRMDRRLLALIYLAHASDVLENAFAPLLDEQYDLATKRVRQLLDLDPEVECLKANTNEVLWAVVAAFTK
UniProt Q9HCC0: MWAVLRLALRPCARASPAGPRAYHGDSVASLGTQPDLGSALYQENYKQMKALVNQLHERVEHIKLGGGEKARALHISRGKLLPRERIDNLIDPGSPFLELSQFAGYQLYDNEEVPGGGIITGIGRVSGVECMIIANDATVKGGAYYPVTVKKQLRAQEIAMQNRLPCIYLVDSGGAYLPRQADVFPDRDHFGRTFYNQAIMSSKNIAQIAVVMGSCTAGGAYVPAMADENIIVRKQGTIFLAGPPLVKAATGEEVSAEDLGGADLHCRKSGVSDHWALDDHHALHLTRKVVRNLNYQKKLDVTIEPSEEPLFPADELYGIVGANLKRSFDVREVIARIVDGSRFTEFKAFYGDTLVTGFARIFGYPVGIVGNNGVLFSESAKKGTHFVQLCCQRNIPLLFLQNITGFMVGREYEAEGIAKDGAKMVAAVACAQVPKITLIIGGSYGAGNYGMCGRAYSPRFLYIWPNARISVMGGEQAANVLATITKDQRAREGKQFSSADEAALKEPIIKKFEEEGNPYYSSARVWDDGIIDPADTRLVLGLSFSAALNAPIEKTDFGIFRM

Some of the results follow. Most values lie at the level of the controls, where differences are scatter.

Compound in this test: Cc1nc(Nc2ncc(C(=O)Nc3c(C)cccc3Cl)s2)cc(N2CCN(CCO)CC2)n1 [dasatinib]
The test can be described thus: log2 fold change of tryptic peptide abundance, ligand vs vehicle (limited proteolysis) (log2 ratio); higher = more trypsin-susceptible (destabilized). Conditions: ligand concentration: 5 uM; sample: K562 cleared lysate.
Turning to “TAF9B (peptide sequence: DALVMAQILK, peptide start residue: 15) (UniProt Q9HBM6)”, the log2 fold change is -0.0841. Under “UniProt Q9HBZ2 (peptide sequence: ENHSEIER, peptide start residue: 92)” stands -0.0842.

Turning to “RPF1 (peptide sequence: MFASLFPHNPQFIGR, peptide start residue: 262) (UniProt Q9H9Y2)”, the log2 fold change was -0.274. Regarding “SMYD3 (peptide sequence: LAFDIMR, peptide start residue: 395) (UniProt Q9H7B4)”, the log2 fold change is -0.215. Take “CENPJ (peptide sequence: WSSTHSR, peptide start residue: 1017) (UniProt Q9HC77)”: the log2 fold change was -0.763. With “C1orf198 (peptide sequence: ASQGSQALK, peptide start residue: 158) (UniProt Q9H425)”, the log2 fold change amounted to 0.504.

Consider “NOL11 (peptide sequence: QLLSTIMKDSEK, peptide start residue: 400) (UniProt Q9H8H0)”, for which the log2 fold change turned out to be 0.197. The same measure for “RC3H2 (peptide sequence: KQSLGEDHVILEEQK, peptide start residue: 1117) (UniProt Q9HBD1)”: 0.603; for “FBXL15 (peptide sequence: SLVQLHLAGLRR, peptide start residue: 53) (UniProt Q9H469)”: 0.318. The same measure for “GOLPH3 (peptide sequence: LQLEACGMR, peptide start residue: 103) (UniProt Q9H4A6)”: -0.219; for “MCCC2 (peptide sequence: GTHFVQLCCQR, peptide start residue: 384) (UniProt Q9HCC0)”: 0.163.
